Consider 13 compounds from patent US20050026068A1, “Polycarbocyclic derivatives for modification of resist, optical and etch resistance properties” (priority 2001, published 2005).

A short description of data set [1]: Oxygen plasma etching rate of PMMA films, Reactive Ion Etcher. To be noted: for ETCH RATE (Oxygen plasma etching rate): RIE, 10 mTorr, 400 W, DC bias 150V, 2 min, pure PMMA 3300.
Data set [2] in a line: Etching of PMMA films in inductively coupled high density plasma reactor (O2 or SF6). Particulars: PMMA loaded with additive; ICP 600 W, bias 100V, 10 mTorr.
[3] abbreviates: PMMA film loaded with additive, O2 plasma RIE, 120 sec.

Turning to `Nc1ccc2cc3ccccc3cc2c1` [2-aminoanthracene], in data set [1] (additive 5% w/w in PMMA), the “ETCH RATE (Oxygen plasma etching rate)” value stood at 2435 Å/min.

In the case of `O=C(O)c1c2ccccc2cc2ccccc12` [9-anthracene carboxylic acid], the “ETCH RATE (Oxygen plasma etching rate)” value in data set [1] (additive 5% w/w in PMMA) amounted to 3017 Å/min.

Turning to `OCc1c2ccccc2cc2ccccc12` [9-anthracene methanol], in data set [1] (additive 5% w/w in PMMA), the “ETCH RATE (Oxygen plasma etching rate)” value stood at 3017 Å/min.

For the compound `O=C(OCC(COC(=O)C12CC3CC(CC(C3)C1)C2)Cc1c2ccccc2cc2ccccc12)C12CC3CC(CC(C3)C1)C2` (stereo not drawn) [Compound XIII, Mixed anthryl ester], in data set [1] (additive 7.5% w/w in PMMA), the “ETCH RATE (Oxygen plasma etching rate)” value worked out at 3100 Å/min.

`CC(=O)C1CCC2C3CC=C4CC(OC(=O)c5c6ccccc6cc6ccccc56)CCC4(C)C3CCC12C` (stereo not drawn) [Compound XIV, 5-pregnen-3β-yl-(9-anthryl-methylate)-20-one]: the “ETCH RATE (Oxygen plasma etching rate)” value in data set [1] (additive 7.5% w/w in PMMA) turned out to be 2700 Å/min.

Regarding `O=C(O)CCC(=O)OC(Cc1c2ccccc2cc2ccccc12)Cc1c2ccccc2cc2ccccc12` [II, 1,3-di-(9-anthryl2-propyl hydrogen succinate], the “ETCH RATE (Oxygen plasma etching rate)” value in data set [1] (additive 7.5% w/w in PMMA) is 2850 Å/min.

For `O=C(CCC(=O)OC(Cc1c2ccccc2cc2ccccc12)Cc1c2ccccc2cc2ccccc12)OCc1c2ccccc2cc2ccccc12` [IX, 1,3-Di-(9-anthryl)-2-propyl 9-anthrylmethyl Succinate], the “ETCH RATE (Oxygen plasma etching rate)” value in data set [1] (additive 7.5% w/w in PMMA) worked out at 2850 Å/min.

Consider `OC(Cc1c2ccccc2cc2ccccc12)Cc1c2ccccc2cc2ccccc12` [I], for which the “ETCH RATE (Oxygen plasma etching rate)” value in data set [1] (additive 7.5% w/w in PMMA) turned out to be 2700 Å/min.

As for `O=C(OCCOc1c2ccccc2cc2ccccc12)OCCOc1c2ccccc2cc2ccccc12` [VI, Di-2-(9-anthryloxy)-ethyl carbonate], the “ETCH RATE (Oxygen plasma etching rate)” value in data set [1] (additive 7.5% w/w in PMMA) stood at 3067 Å/min.

Regarding `O=C(OCc1c2ccccc2cc2ccccc12)c1c2ccccc2cc2ccccc12` [VII], the “ETCH RATE (Oxygen plasma etching rate)” value in data set [1] (additive 7.5% w/w in PMMA) worked out at 2800 Å/min.

As for `O=C(CCC(=O)OC(Cc1c2ccccc2cc2ccccc12)Cc1c2ccccc2cc2ccccc12)OCC(COC(=O)CCC(=O)OC(Cc1c2ccccc2cc2ccccc12)Cc1c2ccccc2cc2ccccc12)Cc1c2ccccc2cc2ccccc12` [X, Penta-anthryl ester], the “ETCH RATE (Oxygen plasma etching rate)” value in data set [1] (additive 7.5% w/w in PMMA) came to 2750 Å/min.

In data set [1] (setting [3]), `O=C(OCc1c2ccccc2cc2ccccc12)C12CC3CC(CC(C3)C1)C2` [XI, 1-adamantyl 9-anthrylmethylate] came in with an Etching rates of 2.600 Å/min, a Thickness after etching of 4.600 Å and a Thickness differences of 5.200 Å. Moreover, the “ETCH RATE (Oxygen plasma etching rate)” value in data set [1] (additive 7.5% w/w in PMMA) came to 2600 Å/min. Moreover, in data set [2], the “Etching Rates in O2 Plasma” value was 3600 Å/min and the “Etching Rates in SF6 Plasma” value stood at 2410 Å/min.

For the compound `c1ccc2cc3ccccc3cc2c1` [anthracene], the “ETCH RATE (Oxygen plasma etching rate)” value in data set [1] (additive 5% w/w in PMMA) was 3017 Å/min.
